Measured values published in publication PMC10442857 (ACS Chemical Biology, 2023).

Assay: general procedure: Fmoc solid-phase peptide synthesis; Rink amide MBHA resin (0.39 mmol/g); HCTU/DIPEA in NMP
Conditions: whole synthesis, scale of the general procedure 0.1 mmol; for final LC-MS purity: analytical HPLC-MS

Substance	final LC-MS purity [%]	isolated yield [%]
PEPTIDE1{G.S.[Dap].F.L.S.P.N.[am]}|CHEM1{[C8]}$PEPTIDE1,CHEM1,3:R3-1:R2$$$V2.0	99	25
PEPTIDE1{[Inp].S.[Dap].[Nal-1].L.S.P.T.[am]}|CHEM1{[6FN]}$PEPTIDE1,CHEM1,3:R3-1:R2$$$V2.0	99	33
PEPTIDE1{G.S.[Dap].[Nal-2].L.S.P.T.[am]}$$$$V2.0	98	34
PEPTIDE1{[Aib].S.[Dap].F.L.S.P.Y.[am]}$$$$V2.0	99	26
PEPTIDE1{G.S.[Dap].F.L.S.P.Y.[am]}|CHEM1{[6FN]}$PEPTIDE1,CHEM1,3:R3-1:R2$$$V2.0	99	25
PEPTIDE1{G.S.[Dap].F.L.S.P.Y.[am]}|CHEM1{[C8]}$PEPTIDE1,CHEM1,3:R3-1:R2$$$V2.0	98	20
PEPTIDE1{G.S.[Dap].F.L.S.P.E.[am]}|CHEM1{[C8]}$PEPTIDE1,CHEM1,3:R3-1:R2$$$V2.0	96	22
PEPTIDE1{[Inp].S.[Dap].F.L.S.P.Y.[am]}$$$$V2.0	99	28
PEPTIDE1{G.S.[Dap].[Nal-1].L.S.P.T.[am]}$$$$V2.0	99	10
PEPTIDE1{G.S.[Dap].F.L.S.P.T.[am]}|CHEM1{[C8]}$PEPTIDE1,CHEM1,3:R3-1:R2$$$V2.0	99	24
PEPTIDE1{G.S.[Dap].F.L.S.P.Y.[am]}$$$$V2.0	99	36
H-GS-Dap-Nal-1-LSPT-(SulfoCy5-K)-NH2	95	7

Some peptides are written in HELM: one residue between dots, names in brackets for other building blocks, links after the first $.
